Reference: ChEMBL document CHEMBL5543144, “Discovery of a Novel Potent Tetrazole Antifungal Candidate with High Selectivity and Broad Spectrum” (J Med Chem, 2024)
≈ marks a conversion by molar mass, not a printed value.

How the values were obtained:
Candida albicans [1] = test: Antifungal activity in Candida albicans SC5314 assessed as inhibition of fungal growth incubated for 26 days by induction of resistance assay; type: functional; details: SC5314, 624 h, time 26 day
Candida albicans [2] = test: Antifungal activity in Candida albicans SC5314 assessed as inhibition of fungal growth incubated for 6 days by induction of resistance assay; type: functional; details: SC5314, 144 h, time 6 day

OC(Cn1cncn1)(Cn1cncn1)c1ccc(F)cc1F [FLUCONAZOLE]
MIC (Candida albicans [1]): 32 µg/mL (≈ 104 µM)
MIC (Candida albicans [2]): 4 µg/mL (≈ 13.1 µM)
